Results deposited as PubChem BioAssay AID602196 (INSERM, 2012)
The deposit covers about 23,000 reagents; shown is an unselected part. 455 of them (2%) count as active. 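Active includes both protection and sensitisation; some change values fall well beyond the stated -50 to +50 range.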 Further read-outs or replicates are left out here. Not given: the amount of reagent.

- Aim: 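Knock-downs that protect lung cancer cells from cisplatin or sensitise them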
- Cell system: human A549 lung cancer cells
- Reagent: siRNA pair against human genes
- Time to read-out: 48 h transfection before cisplatin; time from cisplatin to read-out not stated
- Conditions: cisplatin at a dose killing half of control-siRNA cells; exact dose and duration not given
- Measurement: 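Shift in cisplatin death relative to control siRNA, from -50 (all cells die) to +50 (no cells die); siRNAs harmful on their own scored 0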
- Reading the numbers: two-siRNA summed score (-2 to +2): higher = both siRNAs protect from cisplatin killing; -2 means both sensitise
- Rule for the call: 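siRNAs harmful alone (LDH or WST-1) get 0; others get +1 for less and -1 for more cisplatin killing; genes are active when the two siRNAs give the same sign, summing to ±2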
- Calls: active = both siRNAs shift cisplatin killing the same way; inactive = no consistent shift, or siRNA harmful alone

LOC388141 → two-siRNA summed score (-2 to +2) = 0; call = inactive
CASKIN2 → two-siRNA summed score (-2 to +2) = 0; call = inactive
GSC2 → two-siRNA summed score (-2 to +2) = 1; call = inactive
MYH11 → two-siRNA summed score (-2 to +2) = 0; call = inactive
ARID2 → two-siRNA summed score (-2 to +2) = 0; call = inactive
LOC441896 → two-siRNA summed score (-2 to +2) = 0; call = inactive
OLIG2 → two-siRNA summed score (-2 to +2) = 0; call = inactive
ATL3 → two-siRNA summed score (-2 to +2) = 0; call = inactive
MAP3K7 → two-siRNA summed score (-2 to +2) = 1; call = inactive
LOC391581 → two-siRNA summed score (-2 to +2) = 0; call = inactive
BAZ1A → two-siRNA summed score (-2 to +2) = -1; call = inactive
NOL7 → two-siRNA summed score (-2 to +2) = 0; call = inactive
COX6B2 → two-siRNA summed score (-2 to +2) = 0; call = inactive
DLK2 → two-siRNA summed score (-2 to +2) = 0; call = inactive
DHRS11 → two-siRNA summed score (-2 to +2) = 1; call = inactive
LOC442703 → two-siRNA summed score (-2 to +2) = 0; call = inactive
SH3BP5L → two-siRNA summed score (-2 to +2) = 0; call = inactive
ACOT13 → two-siRNA summed score (-2 to +2) = 0; call = inactive
COG1 → two-siRNA summed score (-2 to +2) = 0; call = inactive

Reprinted from above for reference:
DHRS11 → two-siRNA summed score (-2 to +2) = 1; call = inactive
LOC442703 → two-siRNA summed score (-2 to +2) = 0; call = inactive
SH3BP5L → two-siRNA summed score (-2 to +2) = 0; call = inactive

Additional entries follow:
HBG2 → two-siRNA summed score (-2 to +2) = 0; call = inactive
SPRY3 → two-siRNA summed score (-2 to +2) = 0; call = inactive
ARHGAP18 → two-siRNA summed score (-2 to +2) = 0; call = inactive
PRSS42P → two-siRNA summed score (-2 to +2) = 0; call = inactive
TTC23L → two-siRNA summed score (-2 to +2) = 1; call = inactive
LOC440899 → two-siRNA summed score (-2 to +2) = 0; call = inactive
LINC00114 → two-siRNA summed score (-2 to +2) = 1; call = inactive
SERPINE2 → two-siRNA summed score (-2 to +2) = 0; call = inactive
LY86-AS1 → two-siRNA summed score (-2 to +2) = 0; call = inactive
SALL4 → two-siRNA summed score (-2 to +2) = 0; call = inactive
IRF1 → two-siRNA summed score (-2 to +2) = 1; call = inactive
KRTAP1-1 → two-siRNA summed score (-2 to +2) = 0; call = inactive
